# Patent US8853219B2, “Compounds and compositions for cognition-enhancement, methods of making, and methods of treating” (NeuroSolis, Inc., priority 2010, dated 2014)
# Some entries share one result that the patent states for a list of compounds.
# Molecular target: T1, human FMO1 Supersomes (Homo sapiens, UniProt Q01740)
# T1 construct: purchased BD Biosciences 456241
# T1 sequence (Q01740 1-532): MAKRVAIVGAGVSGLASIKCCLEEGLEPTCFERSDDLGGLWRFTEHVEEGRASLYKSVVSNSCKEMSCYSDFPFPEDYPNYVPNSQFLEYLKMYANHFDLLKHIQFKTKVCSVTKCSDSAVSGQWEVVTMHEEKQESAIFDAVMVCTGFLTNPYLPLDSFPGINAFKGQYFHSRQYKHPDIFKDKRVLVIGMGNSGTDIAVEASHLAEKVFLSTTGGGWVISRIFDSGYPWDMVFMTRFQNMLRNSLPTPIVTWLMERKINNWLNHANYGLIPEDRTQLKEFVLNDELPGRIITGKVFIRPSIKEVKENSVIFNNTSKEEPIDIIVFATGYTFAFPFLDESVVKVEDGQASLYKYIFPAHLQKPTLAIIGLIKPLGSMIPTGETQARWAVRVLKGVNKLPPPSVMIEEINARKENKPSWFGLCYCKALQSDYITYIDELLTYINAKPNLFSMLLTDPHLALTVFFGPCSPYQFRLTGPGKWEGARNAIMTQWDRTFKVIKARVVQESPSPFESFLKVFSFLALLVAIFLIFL
# Assay: Metabolism by flavin monoxygenase 1 (FMO1) Supersomes
# Type: in vitro ADME
# Details: After 6 hours
row,SMILES,Metabolized in FMO Supersomes
1,"Cc1noc([C@@H]2CCCNC2)n1 [Compound 3b, R-(−)-3-methyl-5-(piperidin-3-yl)-1,2,4-oxadiazole]",less than 30%
2,"[2H]C([2H])([2H])c1noc([C@@H]2CCCNC2)n1 [Compound 7b, R-(−)-3-D3-methyl-5-(piperidin-3-yl)-1,2,4-oxadiazole]",less than 30%
